Patent US20220074941A1, “HSP90 COMBINATION THERAPY” (Sloan-Kettering Institute for Cancer Research, priority 2011, published 2022)

How the values were obtained:
[1] = tested on: Hsp90 complexes in K562 cell extract; test: Nano-LC-MS/MS of PU-beads pull-downs; assay type: binding; settings: for Number of Assigned Spectra, K562 Prep 1 / Number of Assigned Spectra, K562 Prep 2: protein identified in PU-beads pull-down of K562 extract, QSTAR-Elite QTof MS; for Matched Peptides by Fraction JA06: Run1, gel size cut 40-60; for Matched Peptides by Fraction JA13: Run2, gel size cut 40-60; for MAXIMUM matched peptides: maximum over fractions JA01-JA14; for Total fmol: protein isolated in PU-beads pull-downs, Waters Xevo QTof MS; for Matched Peptides by Fraction JA07: Run1, gel size cut <40; for Matched Peptides by Fraction JA14: Run2, gel size cut <40; for Matched Peptides by Fraction JA11: Run2, gel size cut 80-110
Procedure: Protein cargo isolated from cell lysate with PU-beads or control-beads was subjected to proteomic analysis by nano liquid chromatography coupled to tandem mass spectrometry (nano LC-MS/MS). Initial protein identification was performed using the Mascot search engine, and was further evaluated using Scaffold Proteome Software (Tables 5a-d).
(§1) Lysates prepared as mentioned above were first pre-cleaned by incubation with control beads overnight at 4° C. […] Beads were washed with lysis buffer, proteins eluted by boiling in 2% SDS, separated on a denaturing gel and Coomassie stained according to manufacturer's procedure (Biorad). […] Analyses of the batch purified pools were done using a QSTAR-Elite hybrid quadrupole time-of-flight mass spectrometer (QTof MS) (AB/MDS Sciex), equipped with a nano spray ion source. Peptide mixtures (in 20 μL) are loaded onto a trapping guard column (0.3×5-mm PepMap C18 100 cartridge from LC Packings) using an Eksigent nano MDLC system (Eksigent Technologies, Inc) at a flow rate of 20 μL/min. […] Electrospray ionization (ESI) needle voltage was set at about 1800 V. The mass analyzer is operated in automatic, data-dependent MS/MS acquisition mode, with the threshold set to 10 counts per second of doubly or triply charged precursor ions selected for fragmentation scans. Survey scans of 0.25 sec are recorded from 400 to 1800 amu; up to 3 MS/MS scans are then collected sequentially for the selected precursor ions, recording from 100 to 1800 amu. The collision energy is automatically adjusted in accordance with the m/z value of the precursor ions selected for MS/MS. Selected precursor ions are excluded from repeated selection for 60 sec after the end of the corresponding fragmentation duty cycle. […] One missed tryptic cleavage site was allowed, precursor ion mass tolerance=0.4 Da fragment ion mass tolerance=0.4 Da, protein modifications were allowed for Met-oxide, Cys-acrylamide and N-terminal acetylation. MudPit scoring was typically applied with ‘require bold red’ activated, and using significance threshold score p<0.05. Unique peptide counts (or ‘spectral counts’) and percent sequence coverages for all identified proteins were exported to Scaffold Proteome Software (version 2_06_01, www.proteomesoftware.com) for further bioinformatic analysis (Table 5a). Using output from Mascot, Scaffold validates, organizes, and interprets mass spectrometry data, allowing more easily to manage large amounts of data, to compare samples, and to search for protein modifications.

[2] = tested on: Hsp90 complexes in Mia-PaCa-2 cell extract; test: Nano-LC-MS/MS of PU-beads pull-downs; assay type: binding, human; settings: protein identified in PU-beads pull-down of Mia-Paca 2 extract; QSTAR-Elite QTof MS
Procedure: as §1

MAPK14; p38
Number of Assigned Spectra, K562 Prep 1 [1]: 1 | Number of Assigned Spectra, K562 Prep 2 [1]: 0 | Number of Assigned Spectra, Mia-Paca 2 [2]: 0

FERMT3
Number of Assigned Spectra, K562 Prep 1 [1]: 8 | Number of Assigned Spectra, K562 Prep 2 [1]: 0 | Number of Assigned Spectra, Mia-Paca 2 [2]: 0

FBXO22
Number of Assigned Spectra, K562 Prep 1 [1]: 0 | Number of Assigned Spectra, K562 Prep 2 [1]: 0 | Number of Assigned Spectra, Mia-Paca 2 [2]: 3

MAPK1; ERK2
Number of Assigned Spectra, K562 Prep 1 [1]: 23 | Number of Assigned Spectra, K562 Prep 2 [1]: 5 | Number of Assigned Spectra, Mia-Paca 2 [2]: 14

HIST1H1C
Number of Assigned Spectra, K562 Prep 1 [1]: 1 | Number of Assigned Spectra, K562 Prep 2 [1]: 0 | Number of Assigned Spectra, Mia-Paca 2 [2]: 7

NDC80
Number of Assigned Spectra, K562 Prep 1 [1]: 13 | Number of Assigned Spectra, K562 Prep 2 [1]: 4 | Number of Assigned Spectra, Mia-Paca 2 [2]: 0

RPS6KA1
Number of Assigned Spectra, K562 Prep 1 [1]: 6 | Number of Assigned Spectra, K562 Prep 2 [1]: 1 | Number of Assigned Spectra, Mia-Paca 2 [2]: 0

DOCK11
Number of Assigned Spectra, K562 Prep 1 [1]: 0 | Number of Assigned Spectra, K562 Prep 2 [1]: 0 | Number of Assigned Spectra, Mia-Paca 2 [2]: 1

PTK2B
Number of Assigned Spectra, K562 Prep 1 [1]: 2 | Number of Assigned Spectra, K562 Prep 2 [1]: 0 | Number of Assigned Spectra, Mia-Paca 2 [2]: 0

STRAP
Number of Assigned Spectra, K562 Prep 1 [1]: 13 | Number of Assigned Spectra, K562 Prep 2 [1]: 0 | Number of Assigned Spectra, Mia-Paca 2 [2]: 4

RPS6KA3
Number of Assigned Spectra, K562 Prep 1 [1]: 13 | Number of Assigned Spectra, K562 Prep 2 [1]: 10 | Number of Assigned Spectra, Mia-Paca 2 [2]: 3

ATR
Number of Assigned Spectra, K562 Prep 1 [1]: 5 | Number of Assigned Spectra, K562 Prep 2 [1]: 0 | Number of Assigned Spectra, Mia-Paca 2 [2]: 3

YWHAQ
Number of Assigned Spectra, K562 Prep 1 [1]: 0 | Number of Assigned Spectra, K562 Prep 2 [1]: 0 | Number of Assigned Spectra, Mia-Paca 2 [2]: 4

BUB1B
Number of Assigned Spectra, K562 Prep 1 [1]: 3 | Number of Assigned Spectra, K562 Prep 2 [1]: 1 | Number of Assigned Spectra, Mia-Paca 2 [2]: 0

HDAC1
Number of Assigned Spectra, K562 Prep 1 [1]: 10 | Number of Assigned Spectra, K562 Prep 2 [1]: 11 | Number of Assigned Spectra, Mia-Paca 2 [2]: 1

NONO
Number of Assigned Spectra, K562 Prep 1 [1]: 0 | Number of Assigned Spectra, K562 Prep 2 [1]: 0 | Number of Assigned Spectra, Mia-Paca 2 [2]: 4

TLN1
Number of Assigned Spectra, K562 Prep 1 [1]: 12 | Number of Assigned Spectra, K562 Prep 2 [1]: 12 | Number of Assigned Spectra, Mia-Paca 2 [2]: 0

LGALS3
Number of Assigned Spectra, K562 Prep 1 [1]: 0 | Number of Assigned Spectra, K562 Prep 2 [1]: 0 | Number of Assigned Spectra, Mia-Paca 2 [2]: 9

RPTOR
Number of Assigned Spectra, K562 Prep 1 [1]: 7 | Number of Assigned Spectra, K562 Prep 2 [1]: 3 | Number of Assigned Spectra, Mia-Paca 2 [2]: 2

NCOR2
Number of Assigned Spectra, K562 Prep 1 [1]: 8 | Number of Assigned Spectra, K562 Prep 2 [1]: 5 | Number of Assigned Spectra, Mia-Paca 2 [2]: 2

MTOR; FRAP
Number of Assigned Spectra, K562 Prep 1 [1]: 43 | Number of Assigned Spectra, K562 Prep 2 [1]: 14 | Number of Assigned Spectra, Mia-Paca 2 [2]: 13

HSP90AA1
Number of Assigned Spectra, K562 Prep 1 [1]: 563 | Number of Assigned Spectra, K562 Prep 2 [1]: 2018 | Number of Assigned Spectra, Mia-Paca 2 [2]: 1514

CSNK2B
Number of Assigned Spectra, K562 Prep 1 [1]: 1 | Number of Assigned Spectra, K562 Prep 2 [1]: 0 | Number of Assigned Spectra, Mia-Paca 2 [2]: 1

MAP3K4; MEKK4
Number of Assigned Spectra, K562 Prep 1 [1]: 3 | Number of Assigned Spectra, K562 Prep 2 [1]: 7 | Number of Assigned Spectra, Mia-Paca 2 [2]: 0

AKAP8
Number of Assigned Spectra, K562 Prep 1 [1]: 4 | Number of Assigned Spectra, K562 Prep 2 [1]: 0 | Number of Assigned Spectra, Mia-Paca 2 [2]: 0

HDAC2
Number of Assigned Spectra, K562 Prep 1 [1]: 2 | Number of Assigned Spectra, K562 Prep 2 [1]: 3 | Number of Assigned Spectra, Mia-Paca 2 [2]: 1

DOCK2
Number of Assigned Spectra, K562 Prep 1 [1]: 2 | Number of Assigned Spectra, K562 Prep 2 [1]: 3 | Number of Assigned Spectra, Mia-Paca 2 [2]: 1

NSUN2
Number of Assigned Spectra, K562 Prep 1 [1]: 11 | Number of Assigned Spectra, K562 Prep 2 [1]: 8 | Number of Assigned Spectra, Mia-Paca 2 [2]: 5

RIF1
Number of Assigned Spectra, K562 Prep 1 [1]: 2 | Number of Assigned Spectra, K562 Prep 2 [1]: 0 | Number of Assigned Spectra, Mia-Paca 2 [2]: 2

WRAP53
Number of Assigned Spectra, K562 Prep 1 [1]: 3 | Number of Assigned Spectra, K562 Prep 2 [1]: 0 | Number of Assigned Spectra, Mia-Paca 2 [2]: 0

NPM1
Number of Assigned Spectra, K562 Prep 1 [1]: 8 | Number of Assigned Spectra, K562 Prep 2 [1]: 4 | Number of Assigned Spectra, Mia-Paca 2 [2]: 49

PRKAG1
Number of Assigned Spectra, K562 Prep 1 [1]: 10 | Number of Assigned Spectra, K562 Prep 2 [1]: 0 | Number of Assigned Spectra, Mia-Paca 2 [2]: 1

KIAA1967
Number of Assigned Spectra, K562 Prep 1 [1]: 17 | Number of Assigned Spectra, K562 Prep 2 [1]: 23 | Number of Assigned Spectra, Mia-Paca 2 [2]: 3

IQGAP2
Number of Assigned Spectra, K562 Prep 1 [1]: 18 | Number of Assigned Spectra, K562 Prep 2 [1]: 21 | Number of Assigned Spectra, Mia-Paca 2 [2]: 1

GRB2
Number of Assigned Spectra, K562 Prep 1 [1]: 5 | Number of Assigned Spectra, K562 Prep 2 [1]: 1 | Number of Assigned Spectra, Mia-Paca 2 [2]: 2

SQSTM1
Number of Assigned Spectra, K562 Prep 1 [1]: 3 | Number of Assigned Spectra, K562 Prep 2 [1]: 5 | Number of Assigned Spectra, Mia-Paca 2 [2]: 1

DnaJ homolog subfamily A member 1
Matched Peptides by Fraction JA06 ([1]; PU-beads pull-down): 26 | Matched Peptides by Fraction JA13 ([1]; PU-beads pull-down): 26 | MAXIMUM matched peptides ([1]; PU-beads pull-down): 26 | Total fmol [1]: 49.8849 fmol

14-3-3 protein epsilon; YWHAE
Matched Peptides by Fraction JA07 ([1]; PU-beads pull-down): 15 | Matched Peptides by Fraction JA14 ([1]; PU-beads pull-down): 17 | MAXIMUM matched peptides ([1]; PU-beads pull-down): 17 | Total fmol [1]: 20.1372 fmol

Heat shock protein HSP 90-alpha
Matched Peptides by Fraction JA06 ([1]; PU-beads pull-down): 38 | Matched Peptides by Fraction JA05 ([1]; PU-beads pull-down, Run1, gel size cut 60-80): 47 | Matched Peptides by Fraction JA04 ([1]; PU-beads pull-down, Run1, gel size cut 80-110): 209 | Matched Peptides by Fraction JA03 ([1]; PU-beads pull-down, Run1, gel size cut 110-150): 7 | Matched Peptides by Fraction JA07 ([1]; PU-beads pull-down): 14 | Matched Peptides by Fraction JA01 ([1]; PU-beads pull-down, Run1, gel size cut >200): 6 | Matched Peptides by Fraction JA11 ([1]; PU-beads pull-down): 234 | Matched Peptides by Fraction JA10 ([1]; PU-beads pull-down, Run2, gel size cut 110-150): 20 | Matched Peptides by Fraction JA14 ([1]; PU-beads pull-down): 11 | Matched Peptides by Fraction JA08 ([1]; PU-beads pull-down, Run2, gel size cut >200): 14 | MAXIMUM matched peptides ([1]; PU-beads pull-down): 234 | Total fmol [1]: 1351.4965 fmol

Hsp90 co-chaperone Cdc37
Matched Peptides by Fraction JA06 ([1]; PU-beads pull-down): 17 | Matched Peptides by Fraction JA13 ([1]; PU-beads pull-down): 16 | MAXIMUM matched peptides ([1]; PU-beads pull-down): 17 | Total fmol [1]: 45.9047 fmol

Histone deacetylase 3; HDAC3
Matched Peptides by Fraction JA06 ([1]; PU-beads pull-down): 9 | Matched Peptides by Fraction JA13 ([1]; PU-beads pull-down): 13 | MAXIMUM matched peptides ([1]; PU-beads pull-down): 13 | Total fmol [1]: 9.1175 fmol

Transducin-like enhancer protein 3; TLE3
Matched Peptides by Fraction JA11 ([1]; PU-beads pull-down): 13 | MAXIMUM matched peptides ([1]; PU-beads pull-down): 13 | Total fmol [1]: 3.7256 fmol
